Drawing on patent US20090304580A1, this text covers binding for one molecule.

Assay [1] deals with T1, linear phage-displayed peptide ….
T1 sequence (peptide): WTWNITKEYPQP
Nature of the assay: degenerate phage library, panned and screened as before (hPAM4 and mPAM4).

Assay [2] has as its target T2, linear phage-displayed peptide ….
T2 sequence (peptide): WTWNITKAYPLP
Kind of assay: screen of phage-displayed peptides for reactivity with hPAM4 and mPAM4.

These are yes or no findings as the source states them, for the method shown. Some entries that bind do so weakly or less than the wild type.

B1: murine PAM4 monoclonal antibody (antibody, V domains shown)
VH: EVQLQESGPELVKPGASVKMSCKASGYTFPSYVLHWVKQKPGQGLEWIGYINPYNDGTQYNEKFKGKATLTSDKSSSTAYMELSRLTSEDSAVYYCARGFGGSYGFAYWGQGTLITVSA
VL: DIVMTQSPAIMSASPGEKVTMTCSASSSVSSSYLYWYQQKPGSSPKLWIYSTSNLASGVPARFSGSGSGTSYSLTISSMEAEDAASYFCHQWNRYPYTFGGGTKLEIK
As to B1, the binding result in assay [1] and in assay [2] was “binds” each time.
